Measured values: patent US10456465B2, “Compositions, kits, and methods for the diagnosis prognosis, monitoring, treatment and modulation of post-transplant lymphoproliferative disorders and hypoxia associated angiogenesis disorders using galectin-1” (Dana-Farber Cancer Institute, Inc., priority 2009, dated 2019)

B1: 8G3.B1.H8: anti-human Gal1 monoclonal antibody (antibody, V domains shown)
VH: EVQLQQSVAEFVRPGASVRLSCTASGFNIKNTYIHWVRQRPEQGLEWIGKIDPANGNTKYVPEFQGKATMTADTSSNTVYLHLSSLTSEDTAIYYCVDGYYGWYFAVWGTGTTVTVSS
VL: QAVVTQESALTTSPGETVTLTCRSSTGAVTTSNYANWVQEKPDHLFTGLIGATNNRAPGVPARFSGSLIGDKAVLTITGAQTEDEAIYFCALWYRNHFIFGSGTKVTVL
B2: 8F4.F8.H2: anti-human Gal1 monoclonal antibody (antibody, V domains shown)
VH: B1 VH
VL: B1 VL
B3: 8B5.E6.H9: anti-human Gal1 monoclonal antibody (antibody, V domains shown)
VH: B1 VH
VL: B1 VL
B4: 8B5.E6.2H3: anti-human Gal1 monoclonal antibody (antibody, V domains shown)
VH: B1 VH
VL: B1 VL
B5: 8G3.B1.G12: anti-human Gal1 monoclonal antibody (antibody, V domains shown)
VH: B1 VH
VL: B1 VL
B6: 8F4F8G7: neutralizing murine anti-human Gal1 monoclonal antibody; hybridoma deposited under PTA-10535 (antibody, V domains shown)
VH: B1 VH
VL: B1 VL
B7: 8B5: Gal1 monoclonal antibody; same heavy and lambda light chain sequence as 8F4 and 8G3 (antibody, V domains shown)
VH: B1 VH
VL: B1 VL
B8: 8G3: Gal1 monoclonal antibody; same heavy and lambda light chain sequence as 8B5 and 8F4 (antibody, V domains shown)
VH: B1 VH
VL: B1 VL
B9: 8F4: Gal1 monoclonal antibody; same heavy and lambda light chain sequence as 8B5 and 8G3 (antibody, V domains shown)
VH: B1 VH
VL: B1 VL

Test system: human Gal1 (hGal1)
Experiment: Epitope mapping with GST-tagged human Gal1 fragments
Assay type: binding
Conditions: GST-tagged hGal1 fragments recognized

Molecule	Mapping
B1	GST-F5; GST-F6; GST-F7
B2	GST-F5; GST-F6; GST-F7
B3	GST-F5; GST-F6; GST-F7
B4	GST-F5; GST-F6; GST-F7
B5	GST-F5; GST-F6; GST-F7
B6	GST-F5; GST-F6; GST-F7

Same assay, conditions: relative to carbohydrate-binding domain (CBD)

Molecule	Domain recognition
B7	distal to the previously described carbohydrate-binding domain
B1	Post-CBD
B8	distal to the previously described carbohydrate-binding domain
B2	Post-CBD
B3	Post-CBD
B4	Post-CBD
B5	Post-CBD
B9	distal to the previously described carbohydrate-binding domain
B6	Post-CBD

Some entries repeat one wording, which the source may state once for all of them.
